Some results were stated once for a whole list of compounds, not compound by compound.
What follows are compounds tested against Fms (UniProt P07333) (assay: Fms assays of Examples 40 or 41 (AlphaScreen kinase assays at 10 and 100 μM ATP, 33P-ATP filter assay, RAW264.7 pFMS and M-NFS-60 M-CSF-stimulated proliferation)). Conditions: in at least one of the Fms assays described in Examples 40 or 41.

IC50, < 1000 nM:
COc1cnc2[nH]cc(Cc3ccc(NCc4ccc(C(F)(F)F)cc4)nc3)c2c1 [P-0053, [5-(5-Methoxy-1H-pyrrolo[2,3-b]pyridin-3-ylmethyl)-pyridin-2-yl]-(4-trifluoromethyl-benzyl)-amine]
FC(F)(F)c1ccc(CNc2ccc(Cc3c[nH]c4ncc(Cl)cc34)cn2)cc1 [P-0054, [5-(5-Chloro-1H-pyrrolo[2,3-b]pyridin-3-ylmethyl)-pyridin-2-yl]-(4-trifluoromethyl-benzyl)-amine]
Clc1cccc(COc2ccc(Cc3c[nH]c4ncccc34)cn2)c1 [P-0055, 3-[6-(3-Chloro-benzyloxy)-pyridin-3-ylmethyl]-1H-pyrrolo[2,3-b]pyridine]
Clc1ccc(COc2ccc(Cc3c[nH]c4ncccc34)cn2)cc1 [P-0056, 3-[6-(4-Chloro-benzyloxy)-pyridin-3-ylmethyl]-1H-pyrrolo[2,3-b]pyridine]
FC(F)(F)c1cccc(COc2ccc(Cc3c[nH]c4ncccc34)cn2)c1 [P-0057, 3-[6-(3-Trifluoromethyl-benzyloxy)-pyridin-3-ylmethyl]-1H-pyrrolo[2,3-b]pyridine]
COc1cnc2[nH]cc(Cc3ccc(NCc4ccc(Cl)cc4)nc3)c2c1 [P-0058, (4-Chloro-benzyl)-[5-(5-methoxy-1H-pyrrolo[2,3-b]pyridin-3-ylmethyl)-pyridin-2-yl]-amine]
Clc1ccc(CNc2ccc(Cc3c[nH]c4ncc(Cl)cc34)cn2)cc1 [P-0059, (4-Chloro-benzyl)-[5-(5-chloro-1H-pyrrolo[2,3-b]pyridin-3-ylmethyl)-pyridin-2-yl]-amine]
CCN(CC)CCOc1cnc2[nH]cc(Cc3ccc(NCc4ccc(C(F)(F)F)cc4)nc3)c2c1 [P-0060, {5-[5-(2-Diethylamino-ethoxy)-1H-pyrrolo[2,3-b]pyridin-3-ylmethyl]-pyridin-2-yl}-(4-trifluoromethyl-benzyl)-amine]
Oc1cnc2[nH]cc(Cc3ccc(NCc4ccc(C(F)(F)F)cc4)nc3)c2c1 [P-0061, 3-[6-(4-Trifluoromethyl-benzylamino)-pyridin-3-ylmethyl]-1H-pyrrolo[2,3-b]pyridin-5-ol]
Oc1cnc2[nH]cc(Cc3ccc(NCc4ccc(Cl)cc4)nc3)c2c1 [P-0062, 3-[6-(4-Chloro-benzylamino)-pyridin-3-ylmethyl]-1H-pyrrolo[2,3-b]pyridin-5-ol]
Clc1ccc(CNc2ccc(Cc3c[nH]c4ncc(OCCN5CCOCC5)cc34)cn2)cc1 [P-0063, (4-Chloro-benzyl)-{5-[5-(2-morpholin-4-yl-ethoxy)-1H-pyrrolo[2,3-b]pyridin-3-ylmethyl]-pyridin-2-yl}-amine]
FC(F)(F)c1ccc(CNc2ccc(Cc3c[nH]c4ncc(OCCN5CCCC5)cc34)cn2)cc1 [P-0064, {5-[5-(2-Pyrrolidin-1-yl-ethoxy)-1H-pyrrolo[2,3-b]pyridin-3-ylmethyl]-pyridin-2-yl}-(4-trifluoromethyl-benzyl)-amine]
FC(F)(F)c1ccc(CNc2ccc(Cc3c[nH]c4ncc(OCCN5CCOCC5)cc34)cn2)cc1 [P-0065, {5-[5-(2-Morpholin-4-yl-ethoxy)-1H-pyrrolo[2,3-b]pyridin-3-ylmethyl]-pyridin-2-yl}-(4-trifluoromethyl-benzyl)-amine]
CCN(CC)CCCOc1cnc2[nH]cc(Cc3ccc(NCc4ccc(C(F)(F)F)cc4)nc3)c2c1 [P-0066, {5-[5-(3-Diethylamino-propoxy)-1H-pyrrolo[2,3-b]pyridin-3-ylmethyl]-pyridin-2-yl}-(4-trifluoromethyl-benzyl)-amine]
CCN(CC)CCCOc1cnc2[nH]cc(Cc3ccc(NCc4ccc(Cl)cc4)nc3)c2c1 [P-0069, (4-Chloro-benzyl)-{5-[5-(3-diethylamino-propoxy)-1H-pyrrolo[2,3-b]pyridin-3-ylmethyl]-pyridin-2-yl}-amine]
O=C(Nc1ccc(Cc2c[nH]c3ncccc23)cn1)c1ccc(C(F)(F)F)cc1 [P-0072, N-[5-(1H-Pyrrolo[2,3-b]pyridin-3-ylmethyl)-pyridin-2-yl]-4-trifluoromethyl-benzamide]
O=C(Nc1ccc(Cc2c[nH]c3ncccc23)cn1)c1ccc(F)cc1 [P-0073, 4-Fluoro-N-[5-(1H-pyrrolo[2,3-b]pyridin-3-ylmethyl)-pyridin-2-yl]-benzamide]
O=C(Nc1ccc(Cc2c[nH]c3ncccc23)cn1)c1ccc(Cl)cc1 [P-0074, 4-Chloro-N-[5-(1H-pyrrolo[2,3-b]pyridin-3-ylmethyl)-pyridin-2-yl]-benzamide]
C[C@H](Nc1ccc(Cc2c[nH]c3ncccc23)cn1)c1ccc(Cl)cc1 [P-0075, [(S)-1-(4-Chloro-phenyl)-ethyl]-[5-(1H-pyrrolo[2,3-b]pyridin-3-ylmethyl)-pyridin-2-yl]-amine]
O=C(Nc1ccc(Cl)cc1)c1ccc(Cc2c[nH]c3ncccc23)cn1 [P-0076, 5-(1H-Pyrrolo[2,3-b]pyridin-3-ylmethyl)-pyridine-2-carboxylic acid (4-chloro-phenyl)-amide]
Clc1ccc(NCc2ccc(Cc3c[nH]c4ncccc34)cn2)cc1 [P-0078, (4-Chloro-phenyl)-[5-(1H-pyrrolo[2,3-b]pyridin-3-ylmethyl)-pyridin-2-ylmethyl]-amine]
COc1nc(NCc2ccc(Cl)cc2)ccc1Cc1c[nH]c2ncccc12 [P-0081, (4-Chloro-benzyl)-[6-methoxy-5-(1H-pyrrolo[2,3-b]pyridin-3-ylmethyl)-pyridin-2-yl]-amine]
Fc1nc(NCc2ccc(Cl)cc2)ccc1Cc1c[nH]c2ncccc12 [P-0082, (4-Chloro-benzyl)-[6-fluoro-5-(1H-pyrrolo[2,3-b]pyridin-3-ylmethyl)-pyridin-2-yl]-amine]
Clc1ccc(CNc2ccc(Cc3c[nH]c4ncccc34)nn2)cc1 [P-0092, (4-Chloro-benzyl)-[6-(1H-pyrrolo[2,3-b]pyridin-3-ylmethyl)-pyridazin-3-yl]-amine]
c1cnc2[nH]cc(Cc3ccc(NCc4ccc(CN5CCOCC5)cc4)nc3)c2c1 [P-0093, (4-Morpholin-4-ylmethyl-benzyl)-[5-(1H-pyrrolo[2,3-b]pyridin-3-ylmethyl)-pyridin-2-yl]-amine]
c1cncc(CNc2ccc(Cc3c[nH]c4ncccc34)cn2)c1 [P-0094, Pyridin-3-ylmethyl-[5-(1H-pyrrolo[2,3-b]pyridin-3-ylmethyl)-pyridin-2-yl]-amine]
Cc1cc(CNc2ccc(Cc3c[nH]c4ncccc34)cn2)no1 [P-0095, (5-Methyl-isoxazol-3-ylmethyl)-[5-(1H-pyrrolo[2,3-b]pyridin-3-ylmethyl)-pyridin-2-yl]-amine]
c1cnc2[nH]cc(Cc3ccc(NCCN4CCCC4)nc3)c2c1 [P-0096, (2-Pyrrolidin-1-yl-ethyl)-[5-(1H-pyrrolo[2,3-b]pyridin-3-ylmethyl)-pyridin-2-yl]-amine]
CC(Nc1ccc(Cc2c[nH]c3ncccc23)cn1)c1ccc(S(C)(=O)=O)cc1 (stereo not drawn) [P-0097, [1-(4-Methanesulfonyl-phenyl)-ethyl]-[5-(1H-pyrrolo[2,3-b]pyridin-3-ylmethyl)-pyridin-2-yl]-amine]
COCCNc1ccc(Cc2c[nH]c3ncccc23)cn1 [P-0098, (2-Methoxy-ethyl)-[5-(1H-pyrrolo[2,3-b]pyridin-3-ylmethyl)-pyridin-2-yl]-amine]
